In US20250382369A1 (UCL BUSINESS, published 2025):
These are yes or no findings as the source states them, for the method shown. Binding can be weak; no strength is given.

Key:
[1] = target: recombinant cynomolgus monkey B7-H3 (cynomolgus monkey (Macaca fascicularis)); assay: ELISA, whole antibody on plate bound recombinant protein (FIG. 5B)
[2] = target: recombinant cynomolgus monkey B7-H3 (cynomolgus monkey (Macaca fascicularis)); assay: binding ELISA with immobilised recombinant protein (FIG. 28C)

binding [1]	binding [2]	Binder
binds	binds	TE9 chimeric human IgG1 full antibody (antibody, V domains shown, Chimeric antibody, mouse variable domains cloned into full human IgG1; also called TE9 antibody; TE9 whole antibody) VH: QVQLQQSGAALVKPGTSVKLSCKASGYTFTSYWMHWVKQRPGQGLEWIGMIHPKSGSVDYNEKFTNKATLTGDKSSGTAYMQLSSLTSEDSAVYYCARGGYGSPFDYWGQGTTVTVSS VL: ENVLTQSPAIMSASPGEKVTMTCSASSSVSYMYWYQQKPGSSPRLLIYRTSNLASGVPARFSGSGSGTSYSLTISSMEAEDAATYYCQQWSSNPPTFGGGTKLEIK
binds		TC6 chimeric human IgG1 full antibody (antibody, V domains shown) VH: QVKLQESGAELVKPGASVKLSCKASGYTFTSYWIHWVKQRPGQGLEWIGMIHPKSGSINYNEKFRSKATLTVDKSSSTAYMQLSRLTSEDSAVYFCASGGYGSSLDYWGQGTTVTVSS VL: QIVLTQSPAIMSASPGEKVTMTCSASSSVSYMYWYQQKPRSSPISWIYLTSNLASGVPARFSGSGSGTSYSLTISSMEAEDAATYYCQQWSSDPLTFGAGTKLELK
